Assay [1] addresses Dyn1 PH domain (isolated, untagged) (UniProt Q05193). The assay can be described thus: dynamic light scattering; untagged protein at 90 μM, 50 μl, room temperature, Dynapro Nanostar; both purified.
The target of assay [2] is full-length Dyn1 (dynamin 1) (UniProt Q05193). The assay can be described thus: negative-stain EM; Dyn1 (2 μM final) incubated with 10 mol% PIP2-containing NT (50 μM total lipid) in the absence and presence of the isolated Dyn1 PH domain (150 μM); both purified.

2 molecules from paper PMC6051998 can be followed below.

No constants are given. Whether binding was seen depends on the method and setting. Some entries that bind do so weakly or less than the wild type. For some assays here: Tags and fused reporters may be left off the sequences shown.

B1: Dyn1 PH domain (isolated, untagged) (domain or fragment, UniProt Q05193 519-625)
chain: LVIRKGWLTINNIGIMKGGSKEYWFVLTAENLSWYKDDEEKEKKYMLSVDNLKLRDVEKGFMSSKHIFALFNTEQRNVYKDYRQLELACETQEEVDSWKASFLRAGV
For the molecule B1, the binding result in assay [1] is reported as “no binding (tested: 90 μM)”.

B2: full-length Dyn1 (dynamin 1) (protein, UniProt Q05193 1-864)
chain: MGNRGMEDLIPLVNRLQDAFSAIGQNADLDLPQIAVVGGQSAGKSSVLENFVGRDFLPRGSGIVTRRPLVLQLVNATTEYAEFLHCKGKKFTDFEEVRLEIEAETDRVTGTNKGISPVPINLRVYSPHVLNLTLVDLPGMTKVPVGDQPPDIEFQIRDMLMQFVTKENCLILAVSPANSDLANSDALKVAKEVDPQGQRTIGVITKLDLMDEGTDARDVLENKLLPLRRGYIGVVNRSQKDIDGKKDITAALAAERKFFLSHPSYRHLADRMGTPYLQKVLNQQLTNHIRDTLPGLRNKLQSQLLSIEKEVEEYKNFRPDDPARKTKALLQMVQQFAVDFEKRIEGSGDQIDTYELSGGARINRIFHERFPFELVKMEFDEKELRREISYAIKNIHGIRTGLFTPDMAFETIVKKQVKKIREPCLKCVDMVISELISTVRQCTKKLQQYPRLREEMERIVTTHIREREGRTKEQVMLLIDIELAYMNTNHEDFIGFANAQQRSNQMNKKKTSGNQDEILVIRKGWLTINNIGIMKGGSKEYWFVLTAENLSWYKDDEEKEKKYMLSVDNLKLRDVEKGFMSSKHIFALFNTEQRNVYKDYRQLELACETQEEVDSWKASFLRAGVYPERVGDKEKASETEENGSDSFMHSMDPQLERQVETIRNLVDSYMAIVNKTVRDLMPKTIMHLMINNTKEFIFSELLANLYSCGDQNTLMEESAEQAQRRDEMLRMYHALKEALSIIGDINTTTVSTPMPPPVDDSWLQVQSVPAGRRSPTSSPTPQRRAPAVPPARPGSRGPAPGPPPAGSALGGAPPVPSRPGASPDPFGPPPQVPSRPNRAPPGVPSRSGQASPSRPESPRPPFDL
On to B2, for which, in assay [2], the binding result is recorded as “binds”.
